These are yes or no findings as the source states them, for the method shown. Binding seen in cells or lysates may run through a third protein. Some binding calls cover weakened binding; strength is not graded here.
B1: ADNP (protein, UniProt Q9Z103 1-1108)
chain: MFQLPVNNLGSLRKARKTVKKILSDIGLEYCKEHIEDFKQFEPNDFYLKNTTWEDVGLWDPSLTKNQDYRTKPFCCSACPFSSKFFSAYKSHFRNVHSEDFENRILLNCPYCTFNADKKTLETHIKIFHAPNSSAPSSSLSTFKDKNKNDGLKPKQADNVEQAVYYCKKCTYRDPLYEIVRKHIYREHFQHVAAPYIAKAGEKSLNGAVSLGTNAREECNIHCKRCLFMPKSYEALVQHVIEDHERIGYQVTAMIGHTNVVVPRAKPLMLIAPKPQDKKGMGLPPRISSLASGNVRSLPSQQMVNRLSIPKPNLNSTGVNMMSNVHLQQNNYGVKSVGQSYGVGQSVRLGLGGNAPVSIPQQSQSVKQLLPSGNGRSFGLGAEQRPPAAARYSLQTANTSLPPGQVKSPSVSQSQASRVLGQSSSKPPPAATGPPPSNHCATQKWKICTICNELFPENVYSVHFEKEHKAEKVPAVANYIMKIHNFTSKCLYCNRYLPTDTLLNHMLIHGLSCPYCRSTFNDVEKMAAHMRMVHIDEEMGPKTDSTLSFDLTLQQGSHTNIHLLVTTYNLRDAPAESVAYHAQNNAPVPPKPQPKVQEKADVPVKSSPQAAVPYKKDVGKTLCPLCFSILKGPISDALAHHLRERHQVIQTVHPVEKKLTYKCIHCLGVYTSNMTASTITLHLVHCRGVGKTQNGQDKTNAPSRLNQSPGLAPVKRTYEQMEFPLLKKRKLEEDADSPSCFEEKPEEPVVLALDPKGHEDDSYEARKSFLTKYFNKQPYPTRREIEKLAASLWLWKSDIASHFSNKRKKCVRDCEKYKPGVLLGFNMKELNKVKHEMDFDAEWLFENHDEKDSRVNASKTVDKKHNLGKEDDSFSDSFEHLEEESNGSGSPFDPVFEVEPKIPSDNLEEPVPKVIPEGALESEKLDQKEEEEEEEEEDGSKYETIHLTEEPAKLMHDASDSEVDQDDVVEWKDGASPSESGPGSQQISDFEDNTCEMKPGTWSDESSQSEDARSSKPAAKKKATVQDDTEQLKWKNSSYGKVEGFWSKDQSQWENASENAERLPNPQIEWQNSTIDSEDGEQFDSMTDGVADPMHGSLTGVKLSSQQA
B2: ZMYM2 (protein, UniProt Q9CU65 1-1376)
chain: MDTSSVGTLELTDQTPVLLGSTAMATSLTNVGNSFSGPPNPLVSRSSKFQNSSVEDDDDVVFIEPVQPPPSSAPLVADQRPITFTSSKNEELQGNDPKILPSSKELAPQKGSVSETIVIDDEEDMETNQGQEKSSSNFIERRPSETKNRTNDVDFSSSTFSRSKVNAGVSNSGITTEPDSEIQIANVTTLETGVSSVSDGQLESTDGRDMNLMITHVTSLHNTSLGDGSNGLQSSNFGVNIQTYTPSLTSQTKAGVGPFNPGRMNVAGDVFQNGESAPHHNPDSWISQSASFPRNQKQQGVDSLSPVASLPKQIFQPSNQQPTKPVKVTCANCKKPLQKGQTAYQRKGSAHLFCSTTCLSSFSHKPAPKKLCVMCKKDITTMKGTIVAQVDSSESFQEFCSTSCLSLYEDKQSPAKGALNKSRCTICGKLTEIRHEVSFKNMTHKLCSDHCFNRYRMANGLIMNCCEQCGEYLPSKGAGNNVLVVDGQQKRFCCQSCVTEYKQVGSHPSFLKEVRDHMQDSFLMQPEKYGKLTTCTGCRTQCRFFDMTQCIGPNGYMEPYCSTACMNSHKTKYAKSQSLGIICHFCKRNSLPQYQATMPDGKLYNFCNSSCVAKFQALSMQSSPNGQFVAPSDIQLKCNYCKNSFCSKPEILEWENKVHQFCSKTCSDDYKKLHCIVTYCEYCQEEKTLHETVNFSGVKRPFCSEGCKLLYKQDFARRLGLRCVTCNYCSQLCKKGATKELDGVVRDFCSEDCCKKFQEWYYKAARCDCCKSQGTLKERVQWRGEMKHFCDQHCLLRFYCQQNEPNMTTQKGPENLHYDQGCQTSRTKMTGSAPPPSPTPNKEMKNKAILCKPLTMTKATYCKPHMQTKSCQTDENWKTEYVPVPIPVPVYVPVPMHMYSQNIPVPTTVPVPVPVPVFLPAPLDSSEKIPATVEDLKSKVSSDPLDSELLTMTDMMTEEEGKAEASNINSVIIETDIIGSDLTKNSDPDIQSNMPDVPYEPDLDIEIDFPRAAEELDMENEFLLPPVFGEEYEEQPRPRSKKKGTKRKAVSGYQSHDDSSDNSECSFPFKYTYGVNAWKHWVKTRQLDEDLLVLDELKSSKSVKLKEDLLSHTTAELNYGLAHFVNEIRRPNGENYAPDSIYYLCLGIQEYLCGSNRKDNIFIDPGYQMFEQELNKILRSWQPSILPDGSIFSRVEEDYLWRIKQLGSHSPVALLNTLFYFNTKYFGLKTVEQHLRLSFGTVFRHWKKNPLTMENKACLRYQVSSLCGTDNEDKIATGKRKHEDDEPVFEQVENTANPSRCPVKMFECYLSKSPQNLNQRMDVFYLQPECSSSTDSPVWYTSTSLDRNTLENMLVRVLLVKDIYDKDNYELDEDTD

Sequences of proteins named here, by UniProt entry; tags and fusion partners are left off.
UniProt Q6PDQ2: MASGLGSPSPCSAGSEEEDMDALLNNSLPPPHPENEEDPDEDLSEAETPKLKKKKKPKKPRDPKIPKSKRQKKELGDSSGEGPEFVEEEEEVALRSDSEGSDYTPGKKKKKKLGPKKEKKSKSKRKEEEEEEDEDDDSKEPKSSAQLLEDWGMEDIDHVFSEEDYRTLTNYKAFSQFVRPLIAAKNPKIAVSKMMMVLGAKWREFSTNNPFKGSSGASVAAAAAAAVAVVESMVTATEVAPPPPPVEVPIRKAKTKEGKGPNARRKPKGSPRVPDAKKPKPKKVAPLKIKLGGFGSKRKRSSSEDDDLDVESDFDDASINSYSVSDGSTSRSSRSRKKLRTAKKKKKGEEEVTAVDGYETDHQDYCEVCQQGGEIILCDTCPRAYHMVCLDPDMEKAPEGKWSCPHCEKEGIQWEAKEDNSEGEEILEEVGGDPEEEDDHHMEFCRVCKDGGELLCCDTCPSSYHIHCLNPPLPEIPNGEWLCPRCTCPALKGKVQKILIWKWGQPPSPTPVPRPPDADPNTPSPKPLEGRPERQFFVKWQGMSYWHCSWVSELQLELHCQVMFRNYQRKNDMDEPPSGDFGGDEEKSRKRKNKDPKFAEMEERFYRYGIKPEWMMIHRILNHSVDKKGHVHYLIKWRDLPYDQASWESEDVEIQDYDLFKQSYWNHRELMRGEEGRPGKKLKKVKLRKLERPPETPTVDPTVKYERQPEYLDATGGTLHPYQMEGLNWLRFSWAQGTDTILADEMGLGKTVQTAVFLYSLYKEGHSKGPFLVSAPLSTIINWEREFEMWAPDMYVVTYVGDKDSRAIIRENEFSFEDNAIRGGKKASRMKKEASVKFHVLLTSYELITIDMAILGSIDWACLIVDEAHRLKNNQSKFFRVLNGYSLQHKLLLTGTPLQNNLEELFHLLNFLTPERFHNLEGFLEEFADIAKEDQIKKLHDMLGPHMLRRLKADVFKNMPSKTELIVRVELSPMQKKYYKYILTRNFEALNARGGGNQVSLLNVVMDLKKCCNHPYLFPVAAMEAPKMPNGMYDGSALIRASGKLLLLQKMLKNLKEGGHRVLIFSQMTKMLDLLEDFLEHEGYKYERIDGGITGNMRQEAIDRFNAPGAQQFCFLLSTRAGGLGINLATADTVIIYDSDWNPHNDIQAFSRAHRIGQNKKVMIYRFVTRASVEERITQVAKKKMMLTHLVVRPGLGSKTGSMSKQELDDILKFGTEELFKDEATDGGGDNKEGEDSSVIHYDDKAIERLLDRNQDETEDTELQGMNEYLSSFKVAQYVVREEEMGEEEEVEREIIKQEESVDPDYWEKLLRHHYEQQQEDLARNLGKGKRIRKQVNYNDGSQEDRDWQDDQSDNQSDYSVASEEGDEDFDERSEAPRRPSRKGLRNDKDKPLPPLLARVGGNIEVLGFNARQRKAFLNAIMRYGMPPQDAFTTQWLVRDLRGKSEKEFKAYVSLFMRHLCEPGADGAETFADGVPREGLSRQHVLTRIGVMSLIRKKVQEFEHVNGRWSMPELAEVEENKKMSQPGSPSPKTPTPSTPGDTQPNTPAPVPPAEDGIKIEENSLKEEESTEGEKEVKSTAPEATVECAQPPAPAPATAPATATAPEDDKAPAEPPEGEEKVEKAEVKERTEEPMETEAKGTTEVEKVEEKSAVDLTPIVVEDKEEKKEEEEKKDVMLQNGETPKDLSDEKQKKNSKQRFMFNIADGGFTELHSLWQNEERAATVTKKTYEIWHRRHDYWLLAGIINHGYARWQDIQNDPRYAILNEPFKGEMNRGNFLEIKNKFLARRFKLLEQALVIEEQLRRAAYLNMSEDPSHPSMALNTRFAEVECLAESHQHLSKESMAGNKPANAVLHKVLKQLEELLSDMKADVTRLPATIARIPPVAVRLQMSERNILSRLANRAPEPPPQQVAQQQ
UniProt P23198: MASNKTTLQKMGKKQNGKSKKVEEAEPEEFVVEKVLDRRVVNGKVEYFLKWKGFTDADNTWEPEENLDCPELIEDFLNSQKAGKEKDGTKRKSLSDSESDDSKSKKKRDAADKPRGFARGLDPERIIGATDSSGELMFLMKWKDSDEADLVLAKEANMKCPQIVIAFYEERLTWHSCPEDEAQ
UniProt O09106: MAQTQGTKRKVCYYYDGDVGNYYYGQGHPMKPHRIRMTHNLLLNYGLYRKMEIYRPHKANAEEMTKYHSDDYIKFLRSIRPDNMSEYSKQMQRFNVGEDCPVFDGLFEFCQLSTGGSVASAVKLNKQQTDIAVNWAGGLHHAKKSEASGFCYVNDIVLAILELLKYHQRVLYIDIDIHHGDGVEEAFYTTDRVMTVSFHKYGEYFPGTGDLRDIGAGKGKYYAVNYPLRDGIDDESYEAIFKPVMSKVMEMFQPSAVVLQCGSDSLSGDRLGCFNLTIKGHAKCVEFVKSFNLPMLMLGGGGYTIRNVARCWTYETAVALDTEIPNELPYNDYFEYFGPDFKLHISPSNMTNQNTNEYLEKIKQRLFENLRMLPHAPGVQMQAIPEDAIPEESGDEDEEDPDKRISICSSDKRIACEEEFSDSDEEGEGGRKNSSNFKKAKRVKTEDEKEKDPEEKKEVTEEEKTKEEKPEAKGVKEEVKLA

Target: CHD4 (mouse (endogenous in testis)) (UniProt Q6PDQ2)
Experiment: co-IP

binding | Molecule
binds | HP1γ (from UniProt P23198 1-183)
binds | HDAC1 (from UniProt O09106 1-482) (enzyme)
binds | B1

Target: FLAG-BEND2 (mouse BEND2 with a 3xFLAG knock-in at the N-terminus) (mouse)
Experiment: co-IP

binding | Molecule
binds | CHD4 (from UniProt Q6PDQ2 1-1915) (enzyme)
binds | HP1γ (from UniProt P23198 1-183)
binds | HDAC1 (from UniProt O09106 1-482) (enzyme)
binds | B2
binds | B1
